Measured values from patent US20220117958A1, “COMPOSITIONS AND METHODS FOR INHIBITING ACSS2” (THE TRUSTEES OF THE UNIVERSITY OF PENNSYLVANIA, priority 2018, published 2022).
The name of at least one read-out is uncertain.

Assay: Protein binding via Rapid Equilibrium Dialysis - brain
Format: in vitro ADME
Details: Rat (SD) brain, 2 μM

Structure (SMILES) | Protein binding, brain: % Protein free
CCCCCNC(=O)Nc1ccc2nc(-c3cccs3)c(-c3cccs3)nc2c1 [ADG-204] | 0.05329 % Protein free
CNC(=O)Nc1ccc2nc(-c3cccs3)c(-c3cccs3)nc2c1 [ADG-206, 1-(2,3-di(thiophen-2-yl)quinoxalin-6-yl)-3-methylurea] | 0.7946 % Protein free
O=C(Nc1ccc2nc(-c3cccs3)c(-c3cccs3)nc2c1)NC12CC3CC(CC(C3)C1)C2 [ADG-207, 1-((1S,3s)-adamantan-1-yl)-3-(2,3-di(thiophen-2-yl)quinoxalin-6-yl)urea] | 0.8994 % Protein free
